Experimental data as given in PubChem BioAssay AID540276 (National Center for Advancing Translational Sciences (NCATS), 2011).
In all, about 300,000 compounds went through this assay and about 5,400 (1.8%) were called active. The inconclusive results got no clear call from the source; some entries with a clear call stand among them for comparison. Calls come from the whole dose curve; tested in HEK293 cells. Where the call is inconclusive, the potency comes from a doubtful curve fit.

Test: qHTS for inhibitors of binding or entry into cells for Marburg Virus
Conditions: Marburg virus pseudotyped entry inhibition, cell reporter; activity change, negative = inhibition: at 37.8 µM (top of the series) unless noted
% is set by controls: 0 for no effect and ±100 for the full control effect; potency is the fitted concentration of half-maximal effect.

| Compound | Potency | activity change, negative = inhibition |
| --- | --- | --- |
| COc1ccc(-n2c(-c3cc(-c4ccccc4)sc3N)n[nH]c2=S)cc1 | inconclusive: 1.12 µM [inhibitor, partial curve, poor fit] |  |
| S=C(NCCSCc1ccc(Cl)cc1Cl)Nc1ccccc1 | inconclusive: 35.5 µM [inhibitor, single point] |  |
| COc1cc(NC(=O)[C@@H](NC(=O)c2ccco2)C(C)C)c(OC)cc1NC(=O)c1ccccc1 |  | inconclusive: 6.5% [activator] [at 46.1 µM] |
| CCOC(=O)c1ccc(N2Cc3ccccc3C2=NC(=O)c2cccs2)cc1 | inconclusive: 35.5 µM [inhibitor, single point] |  |
| O=C(CCn1c(=S)[nH]c2ccccc2c1=O)NCCc1ccc(Cl)cc1 | inconclusive: 12.6 µM [inhibitor, single point] |  |
| O=C(Nc1c(-c2cccs2)nc2ccccn12)c1ccc2ccccc2c1 | inconclusive: 20.6 µM [activator, single point] |  |
| O=C(Cc1cccs1)N1CCCC(c2nc3c(nnn3Cc3cccc(Cl)c3)c(=O)[nH]2)C1 (stereo not drawn) | inactive |  |
| O=c1c2ccccc2nc(-c2ccccc2Cl)n1-c1ccc(O)cc1 | inconclusive: 11.2 µM [inhibitor, partial curve, poor fit] |  |
| COc1ccc(C(=O)O)cc1S(=O)(=O)NCc1ccccn1 | inactive |  |
| CCOC(=O)N1CCC(NC(=O)c2oc3c(c2C)-c2[nH]ncc2CC3)CC1 | inactive |  |
| O=C(Nc1ccc(S(=O)(=O)Nc2cnc3ccccc3n2)cc1)c1ccccc1Br | inconclusive: 5.62 µM [activator, single point] |  |
| Cc1cccc(Nc2nc(N3CCCC3)nc(N3CCCC3)n2)c1 | inconclusive: 29.1 µM [inhibitor, partial curve, poor fit] |  |
| COc1cccc(NC(=O)Nc2cccs2)c1 | inactive |  |
| CC(C)(C)n1nnnc1C(c1ccc(F)cc1)N(Cc1ccc(F)cc1)Cc1ccco1 (stereo not drawn) | inconclusive: 13 µM [inhibitor, partial curve, poor fit] |  |
| COc1ccc(CNC(=O)CSCc2ccccc2Cl)cc1 | inconclusive: 11.2 µM [activator, partial curve, poor fit] |  |
| Cc1ccccc1-c1nc(CN(C)C(C)c2ccon2)c(C)o1 (stereo not drawn) | inactive |  |
| CCn1c(O)c(C2=c3ccccc3=NC2=O)c2cc(Br)ccc21 | inconclusive: 6.31 µM [inhibitor, single point] |  |
| CCOC(=O)N1CCC(N2CCCC(C(=O)c3ccc4cc(OC)ccc4c3)C2)CC1 (stereo not drawn) | inconclusive: 31.6 µM [inhibitor, partial curve, poor fit] |  |

As entered above:
Potency, `COc1ccc(-n2c(-c3cc(-c4ccccc4)sc3N)n[nH]c2=S)cc1` reads inconclusive: 1.12 µM [inhibitor, partial curve, poor fit]
Potency, `COc1cccc(NC(=O)Nc2cccs2)c1` reads inactive
